Data: the supplement of paper PMC9135407
Where “and” joins values, the source holds several entries; their conditions need not be identical. Equal entries are not always repeated. Structures can show the parent of a compound that is named as a salt. ± gives the standard deviation of the averaged measurements. This is one part of the list. Baselines shift from plate to plate; read single values as rough.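 Primary human stellate myofibroblasts activated in culture; inactivation shown by regained lipid droplets. Readout: fraction of Hoechst-counted cells exceeding a per-plate Bodipy threshold, duplicate wells, each plate with DMSO negative and nortriptyline positive controls. Hits: control-normalized score beyond the plate's top-tenth-percentile nortriptyline wells, or among its three best wells. Final well concentrations unstated.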

Test system: primary human hepatic stellate cells (donor 1)
Test: percent Bodipy-positive cells; higher = more lipid droplet accumulation
Conditions: 48 h
[1] = library stock concentration: 10 mM
[2] = library stock concentration: 3.33 mM
[3] = library stock concentration: 1 mM
[4] = library stock concentration: 80 uM
[5] = library stock concentration: 400 uM
[6] = library stock concentration: 2 mM

CC(=O)Nc1ccc(OC(C)=O)cc1
percent Bodipy-positive cells [1]: 27 ± 2.2%

NC1CCN(c2c(F)cc3c(=O)c(C(=O)O)cn(C4CC4)c3c2Cl)C1 (stereo not given)
percent Bodipy-positive cells [1]: 30.3 ± 4.9%

CC(C)(O)CC(=O)NCCn1ccc2ncnc(Nc3ccc(Oc4cccc(C(F)(F)F)c4)c(Cl)c3)c21
percent Bodipy-positive cells [2]: 9.43 ± 3.8%
percent Bodipy-positive cells [1]: 47.41 ± 0.35%

C[C@H](Nc1ncnc2nc[nH]c12)c1cc2cccc(Cl)c2c(=O)n1-c1ccccc1
percent Bodipy-positive cells [2]: 9.81 ± 0.95%
percent Bodipy-positive cells [1]: 27.3 ± 14%

CCCNC(C)(C)COC(=O)c1ccccc1 [Meprylcaine hydrochloride]
percent Bodipy-positive cells: 10.9 ± 2.9%

CCCCCC(=O)CC[C@@H]1[C@@H](C/C=C\CCCC(=O)OC(C)C)[C@@H](O)C[C@H]1O
percent Bodipy-positive cells [3]: 10.3 ± 1.6%

CC(C)[C@H](NC(=O)OCc1ccccc1)C(=O)N[C@H](C=O)Cc1ccccc1
percent Bodipy-positive cells [1]: 48.5 ± 5.9%

OC[C@H]1NC[C@@H](O)[C@@H]1O [1,4-Dideoxy-1,4-imino-D-arabinitol]
percent Bodipy-positive cells [1]: 39.1 ± 8.7%

O=S(=O)(c1cccc2cnccc12)N1CCCNCC1 [Fasudil (HA-1077) HCl]
percent Bodipy-positive cells [2]: 8.11 ± 3%
percent Bodipy-positive cells [1]: 26.9 ± 5.9%

O=S(=O)(c1cccc2cnccc12)N1CCCNCC1 [Fasudil]
percent Bodipy-positive cells (library stock concentration: 6.9 mM): 7.48 ± 2%

O=S(=O)(c1cccc2cnccc12)N1CCCNCC1
percent Bodipy-positive cells [1]: 60.6 ± 7%

O=S(=O)(c1cccc2cnccc12)N1CCCNCC1 [Fasudil hydrochloride]
percent Bodipy-positive cells [1]: 12.3 ± 0.69%

CCCCC[C@H](O)/C=C/[C@H]1C(=O)C[C@H](O)[C@@H]1C/C=C\CCCC(=O)OC [Prostaglandin D2 methyl ester]
percent Bodipy-positive cells [3]: 17.1 ± 15%

COc1cc2nc(N3CCCN(C)CC3)nc(NC3CCN(Cc4ccccc4)CC3)c2cc1OC
percent Bodipy-positive cells [4]: 52.8 ± 7.5%
percent Bodipy-positive cells [5]: 73.1 ± 4.5%
percent Bodipy-positive cells [6]: 99.69 ± 0.44%
percent Bodipy-positive cells [2]: 99.151 ± 0.096%
percent Bodipy-positive cells [1]: 100%

CNCCCCOc1ccccc1Cc1ccccc1.Cl [Bifemelane hydrochloride]
percent Bodipy-positive cells [1]: 80.8 ± 0.92%

CN(C)CCOc1ccc(C(=C(CCCl)c2ccccc2)c2ccccc2)cc1.O=C(O)CC(O)(CC(=O)O)C(=O)O [Toremifene Citrate]
percent Bodipy-positive cells [1]: 96.22 ± 0.33%

CCCCC[C@H](O)/C=C/[C@H]1C(=O)C[C@H](O)[C@@H]1C/C=C\CCCC(=O)NCCO [Prostaglandin D2 Ethanolamide]
percent Bodipy-positive cells [3]: 14 ± 5.8%

CC(C)c1cnn2c(NCc3ccccc3)cc(NCCCCCCN)nc12
percent Bodipy-positive cells [4]: 7.05 ± 0.89%
percent Bodipy-positive cells [5]: 6.93 ± 0.91%
percent Bodipy-positive cells [6]: 11.6 ± 8.3%
percent Bodipy-positive cells [2]: 11.2 ± 3.1%
percent Bodipy-positive cells [1]: 66.6% and 91.3%

NC1CONC1=O (racemic) [DL-Cycloserine]
percent Bodipy-positive cells [1]: 33.9 ± 16%

CCc1nn(CCCN2CCN(c3cccc(Cl)c3)CC2)c(=O)n1CCOc1ccccc1 [Nefazodone]
percent Bodipy-positive cells [1]: 53.6 ± 18%

CCc1nn(CCCN2CCN(c3cccc(Cl)c3)CC2)c(=O)n1CCOc1ccccc1 [Nefazodone hydrochloride]
percent Bodipy-positive cells [1]: 34.2 ± 2.4%

CCc1nn(CCCN2CCN(c3cccc(Cl)c3)CC2)c(=O)n1CCOc1ccccc1
percent Bodipy-positive cells [1]: 72.3 ± 6.5%

CC(=O)Oc1ccc(C(c2ccc(OC(C)=O)cc2)c2ccccn2)cc1 [Bisacodyl]
percent Bodipy-positive cells: 23.2 ± 1.9%
percent Bodipy-positive cells [2]: 10.4 ± 1.9%
percent Bodipy-positive cells [1]: 30% and 6.63%

CCOC(=O)CC(=O)N1CCSC1COc1ccccc1OC (stereo not given) [Moguisteine]
percent Bodipy-positive cells [2]: 10.6 ± 4.2%
percent Bodipy-positive cells [1]: 17.5 ± 2.5%

CCOC(=O)CC(=O)N1CCSC1COc1ccccc1OC (stereo not given)
percent Bodipy-positive cells [1]: 32.9 ± 5.8%

N=c1nc(N2CCCCC2)cc(N)n1O [Minoxidil]
percent Bodipy-positive cells [1]: 33.5 ± 12%

CCCCS(=N)(=O)CCC(N)C(=O)O [L-Buthionine-sulfoximine]
percent Bodipy-positive cells [1]: 51.5 ± 6.9%

COc1cccc(OC)c1OCCNCC1CSc2ccccc2O1 (stereo not given) [Benoxathian hydrochloride]
percent Bodipy-positive cells [1]: 75.7 ± 5.2%

O=C(CSc1nc2c(c(=O)n1-c1ccccc1)SCC2)Nc1ccc(-c2ccccc2)cn1
percent Bodipy-positive cells [2]: 30.2 ± 3.7%
percent Bodipy-positive cells [1]: 32.8 ± 3%

C[C@@H]1CN(c2c(F)c(F)c3c(=O)c(C(=O)O)cn(C4CC4)c3c2F)C[C@H](C)N1
percent Bodipy-positive cells [1]: 29.8 ± 6%

CCC(C)(C)C(=O)O[C@H]1C[C@@H](C)C=C2C=C[C@H](C)[C@H](CC[C@@H]3C[C@@H](O)CC(=O)O3)[C@H]21 [Simvastatin]
percent Bodipy-positive cells: 31.4 ± 0.67%
percent Bodipy-positive cells [2]: 29.1 ± 4.2%

CCCc1nn(C)c2c(=O)[nH]c(-c3cc(S(=O)(=O)N4CCN(C)CC4)ccc3OCC)nc12 [Sildenafil]
percent Bodipy-positive cells [1]: 38.3 ± 8.2%

CCCc1nn(C)c2c(=O)[nH]c(-c3cc(S(=O)(=O)N4CCN(C)CC4)ccc3OCC)nc12 [Sildenafil citrate salt]
percent Bodipy-positive cells [1]: 74.8 ± 2.8%

CCCc1nn(C)c2c(=O)[nH]c(-c3cc(S(=O)(=O)N4CCN(C)CC4)ccc3OCC)nc12 [Sildenafil Citrate]
percent Bodipy-positive cells [2]: 11.9 ± 0.21%
percent Bodipy-positive cells [1]: 23.1 ± 4.8%

O=C(O)CCCCCC[C@@H]1[C@@H](CC[C@@H](O)CCc2cccc(C(F)(F)F)c2)[C@H](O)C[C@@H]1O
percent Bodipy-positive cells [3]: 12.6 ± 0.69%

CN(C[C@@H]1COCCO1)S(=O)(=O)Nc1ccc2ccc3ncc(-c4cnn(C)c4)cc3c(=O)c2c1
percent Bodipy-positive cells [2]: 10.6 ± 4.1%
percent Bodipy-positive cells [1]: 16.9 ± 4.7%

CC(O)(CC(=O)O)CC(=O)O
percent Bodipy-positive cells [1]: 35.4 ± 6%

NNC(=O)c1ccncc1.Nc1ccc(C(=O)O)c(O)c1 [Pasiniazid]
percent Bodipy-positive cells [1]: 38 ± 4.5%

Cc1ccc(NC(=O)c2ccc(CN3CCN(C)CC3)cc2)cc1Nc1nc(-c2cccnc2)cs1 [Masitinib]
percent Bodipy-positive cells [1]: 98.78 ± 0.52%

O=[N+]([O-])c1ccc(O)c2ncccc12
percent Bodipy-positive cells [1]: 53.3 ± 17%

N#CC[C@H](C1CCCC1)n1cc(-c2ncnc3[nH]ccc23)cn1 [S-Ruxolitinib]
percent Bodipy-positive cells [4]: 4.15 ± 1%
percent Bodipy-positive cells [5]: 6.47 ± 1.8%
percent Bodipy-positive cells [6]: 2.54 ± 0.87%
percent Bodipy-positive cells [1]: 8.33 ± 3.9%

N#CC[C@H](C1CCCC1)n1cc(-c2ncnc3[nH]ccc23)cn1
percent Bodipy-positive cells [4]: 19.3 ± 2.5%
percent Bodipy-positive cells [5]: 12.4 ± 3.9%
percent Bodipy-positive cells [6]: 10 ± 3.5%
percent Bodipy-positive cells [2]: 17.2% and 8.81%
percent Bodipy-positive cells [1]: 16.1% and 12% and 5.56%

COc1cc(CNC(=O)CCCCCCC(C)C)ccc1O [Dihydrocapsaicin]
percent Bodipy-positive cells [3]: 14.1 ± 5.3%
percent Bodipy-positive cells [1]: 64.8 ± 13%

O=C1O[C@H]([C@@H](O)CO)C(O)=C1O [Vitamin C]
percent Bodipy-positive cells [2]: 6.1 ± 0.36%
percent Bodipy-positive cells [1]: 18.9 ± 7.2%

O=C1O[C@H]([C@@H](O)CO)C(O)=C1O [Ascorbic acid]
percent Bodipy-positive cells: 29.6 ± 2.2%
percent Bodipy-positive cells [1]: 32.4 ± 1.2%

Clc1ccc(C(c2ccccc2Cl)C(Cl)Cl)cc1 (stereo not given) [1-(2-Chlorophenyl)-1-(4-chlorophenyl)-2,2-dichloroethane]
percent Bodipy-positive cells [1]: 60.1 ± 1.5%

Clc1ccc(C(c2ccccc2Cl)C(Cl)Cl)cc1 (stereo not given) [Mitotane]
percent Bodipy-positive cells [2]: 13.7 ± 3.7%
percent Bodipy-positive cells (library stock concentration: 6.2 mM): 18.2 ± 9.2%
percent Bodipy-positive cells [1]: 59.1% and 44.7%

CCCCC/C=C\C/C=C\C/C=C\CCCCC(=O)O [Gamma-linolenic acid (18:3 n-6)]
percent Bodipy-positive cells [3]: 7.06 ± 2.2%

CCCCC/C=C\C/C=C\C/C=C\CCCCC(=O)O [.gamma.-Linolenic Acid]
percent Bodipy-positive cells [3]: 10.6 ± 1.2%

CCn1c2ccccc2c2cc(CNC)ccc21.Cl
percent Bodipy-positive cells [1]: 91.6 ± 1.3%
